No constants are given. Whether binding was seen depends on the method and setting. Binding seen in cells or lysates may run through a third protein. Some results given as binding are weak or reduced against the parent protein; the word gives no strength.

The chains behind the UniProt entries cited, without tags or fusion partners.
UniProt P10275: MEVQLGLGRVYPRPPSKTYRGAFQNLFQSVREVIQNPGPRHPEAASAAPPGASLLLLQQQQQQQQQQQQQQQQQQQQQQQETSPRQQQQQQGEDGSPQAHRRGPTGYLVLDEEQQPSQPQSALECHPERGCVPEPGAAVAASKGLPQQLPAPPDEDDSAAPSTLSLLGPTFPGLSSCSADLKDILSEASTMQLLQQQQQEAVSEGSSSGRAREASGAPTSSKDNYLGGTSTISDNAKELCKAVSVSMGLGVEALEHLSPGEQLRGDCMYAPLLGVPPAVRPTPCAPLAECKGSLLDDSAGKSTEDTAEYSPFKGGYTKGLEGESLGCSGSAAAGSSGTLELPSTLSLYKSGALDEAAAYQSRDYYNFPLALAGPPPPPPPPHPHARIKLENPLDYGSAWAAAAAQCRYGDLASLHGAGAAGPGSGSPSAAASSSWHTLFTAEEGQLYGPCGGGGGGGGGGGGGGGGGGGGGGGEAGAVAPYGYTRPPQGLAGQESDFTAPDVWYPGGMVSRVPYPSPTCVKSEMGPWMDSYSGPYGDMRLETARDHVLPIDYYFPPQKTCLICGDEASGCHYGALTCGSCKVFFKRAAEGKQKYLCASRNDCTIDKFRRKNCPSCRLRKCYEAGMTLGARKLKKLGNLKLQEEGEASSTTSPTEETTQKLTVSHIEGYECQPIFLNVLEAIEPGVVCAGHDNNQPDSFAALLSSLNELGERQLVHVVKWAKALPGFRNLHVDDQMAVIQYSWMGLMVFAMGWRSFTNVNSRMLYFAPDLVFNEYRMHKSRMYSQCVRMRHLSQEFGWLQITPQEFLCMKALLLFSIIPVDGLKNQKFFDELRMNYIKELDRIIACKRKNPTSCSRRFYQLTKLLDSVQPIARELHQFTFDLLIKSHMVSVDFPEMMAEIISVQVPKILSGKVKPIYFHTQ
UniProt P23771: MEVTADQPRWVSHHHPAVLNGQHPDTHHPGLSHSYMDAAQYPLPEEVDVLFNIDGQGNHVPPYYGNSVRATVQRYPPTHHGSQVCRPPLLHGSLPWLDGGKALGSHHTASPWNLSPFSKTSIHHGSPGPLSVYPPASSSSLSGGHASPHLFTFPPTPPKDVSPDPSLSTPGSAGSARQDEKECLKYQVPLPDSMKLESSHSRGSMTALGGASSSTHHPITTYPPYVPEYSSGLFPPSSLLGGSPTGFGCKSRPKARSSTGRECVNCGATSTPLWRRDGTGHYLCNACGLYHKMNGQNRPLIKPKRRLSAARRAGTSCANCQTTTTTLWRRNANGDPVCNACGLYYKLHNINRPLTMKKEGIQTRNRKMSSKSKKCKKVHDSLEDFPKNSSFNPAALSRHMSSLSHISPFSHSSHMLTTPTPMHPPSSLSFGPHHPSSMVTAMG

The target in assay [1] is androgen receptor (human (endogenous in ZR-75-1, T-47D, MDA-MB-453, MFM-223 cells and human breast tissue)) (UniProt P10275). As to the kind of experiment: co-IP; AR antibody on protein A magnetic beads, blot for GATA3; hormone-starved cells treated with vehicle or DHT for 4 h, cross-linked with 1% formaldehyde, lysed and sonicated; four breast cancer cell lines.
For assay [2] the target is unchanged. Description: proximity ligation; PLA with AR and GATA3 antibodies on 4 uM sections of clinical breast tissues (ER+/AR+ and ER-/AR+ primary cancers, non-malignant reduction mammoplasties), citrate antigen retrieval pH 6.5.
Assay [3] has the same target. Description: proximity ligation; PLA with AR and GATA3 antibodies on fixed, permeabilised ZR-75-1, T-47D, MFM-223 and MDA-MB-453 cells; hormone-starved, then vehicle or 10 nM DHT for 4 h (also a time course, and enobosarm 10 or 100 nM in T-47D).
Assay [4] addresses GATA3 (human) (UniProt P23771). As to the kind of experiment: co-IP; reciprocal: GATA3 antibody on protein A magnetic beads, blot for AR; hormone-starved cells treated with vehicle or DHT for 4 h, cross-linked with 1% formaldehyde, lysed and sonicated; four breast cancer cell lines.

With GATA3 (from UniProt P23771 1-443), the binding result in assay [1], in assay [2] and in assay [3] was “binds” throughout.

Take “androgen receptor (from UniProt P10275 1-920)”: the binding entry in assay [4] is “binds”.

The values above are taken from publication PMC10840202.
